In all, about 3,200 compounds were measured (“TSA(without NAD+) / Primary screening (TSA) / delta Tm (K)”: median about -0.07, highest 2% from about 0.37 on). Some of the results follow.
target: NAD-dependent deacetylase Sirtuin 1 (human, UniProt Q96EB6); assay: primary screen, delta tm; set-up: single well (n = 1); conditions: 10 µM
Procedure: A total of 3,192 compounds extracted from the proposed lists were first screened by thermal shift assay (TSA), which determined a melting temperature shift (ΔTm) of Sirtuin 1 upon the addition of a test compound at a concentration of 10 µM (n = 1) with primary hit criteria of ΔTm > 0.45 K or ΔTm < −1.5 K. Primary hits (48 compounds) were retested in the same assay at three concentrations (5, 10, 20 µM, n = 4) for hit confirmation and for dose-dependency check. Secondary hits (41 compounds) were checked their selectivity for Sirtuin 1 based on counterscreening on unrelated protein targets (bovine carbonic anhydrase (CA) and recombinant SH2 domain of hABL1 kinase (ABL1)) at three different concentrations (5, 10, 20 µM, n = 4), which yielded 38 hit compounds, hereafter referred to as TSA hits. The TSA screening above was conducted in the absence of NAD+.

By UniProt entry, the sequences of proteins in these tests, tags left out. Residues count along the entry.
UniProt Q96EB6, 2-747 limits assumed: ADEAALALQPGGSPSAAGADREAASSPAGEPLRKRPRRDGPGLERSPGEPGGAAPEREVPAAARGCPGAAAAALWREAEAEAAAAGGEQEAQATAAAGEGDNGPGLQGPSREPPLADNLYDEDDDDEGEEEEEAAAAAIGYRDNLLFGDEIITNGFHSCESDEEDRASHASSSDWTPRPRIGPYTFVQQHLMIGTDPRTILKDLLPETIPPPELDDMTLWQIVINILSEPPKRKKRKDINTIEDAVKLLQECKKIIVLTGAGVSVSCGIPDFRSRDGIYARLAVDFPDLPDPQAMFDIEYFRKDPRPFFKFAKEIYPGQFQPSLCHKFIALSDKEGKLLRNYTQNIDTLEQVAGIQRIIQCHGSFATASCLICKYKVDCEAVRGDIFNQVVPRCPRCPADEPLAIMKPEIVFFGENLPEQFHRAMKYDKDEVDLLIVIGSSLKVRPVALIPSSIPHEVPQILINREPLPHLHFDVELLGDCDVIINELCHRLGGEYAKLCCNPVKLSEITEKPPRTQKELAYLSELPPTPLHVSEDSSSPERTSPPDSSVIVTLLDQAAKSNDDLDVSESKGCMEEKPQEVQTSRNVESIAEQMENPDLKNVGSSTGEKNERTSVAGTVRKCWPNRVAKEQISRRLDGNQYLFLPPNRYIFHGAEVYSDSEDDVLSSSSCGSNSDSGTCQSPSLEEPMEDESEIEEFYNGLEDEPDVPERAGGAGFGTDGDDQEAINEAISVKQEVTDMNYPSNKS

Structure (SMILES)	TSA(without NAD+) / Primary screening (TSA) / delta Tm (K)
CN(Cc1nc2ccccc2c(=O)[nH]1)C(=O)c1ccc(COc2ccccc2C#N)o1	-0.05
Cn1ncc2c(N3CCN(C(=O)C4CC(=O)N(C5CCCC5)C4)CC3)ncnc21 (stereo not shown)	-0.18
Cc1ccc(C(=O)N2CC3(CCCC3)c3ccccc32)c(=O)[nH]1	-0.17
Cc1cc(N2CCN(c3ncccc3C(N)=O)CC2)nc(C2CC2)n1	-0.28
NC(=O)C1Cc2ccccc2CN1C(=O)Cc1ccc2c(c1)CCCC2 (stereo not shown)	-0.23
Cc1nc(N2CCC(C(N)=O)CC2)c2c(CC(C)C)csc2n1	0.03
Cc1ccc(O)c(C(=O)NC2CCCNC2=O)c1 (stereo not shown)	-0.24
Cc1[nH]c2ccc(Br)cc2c1CC(=O)N1CCC(C(N)=O)CC1	-0.02
Cc1nn(-c2ccccc2)c2sc(C(=O)NCc3cccc(NC(=O)C4CC4)c3)cc12	-0.02
CC(NCc1cccc2c1OCO2)c1ccc2c(c1)NC(=O)CO2 (stereo not shown)	-0.22
CCC(O)CCN (stereo not shown)	-0.12
O=C(CN1CCN(Cc2cscn2)CC1)NC(c1ccccc1)C1CC1 (stereo not shown)	-0.22
C=CCOc1cccc(/C=C2\Oc3cc(O)ccc3C2=O)c1	-0.04
O=C(COC(=O)C12CC3CC(C1)CC(c1ccccc1)(C3)C2)N1CCc2ccccc21	0.08
Cc1ccc(NC(=O)CN2CCN(C(=O)c3ccc(-c4ccc(Cl)cc4)o3)CC2)cc1	0.08
NC(=O)C1CCN(C(=O)NCc2ccccc2CN2CCOCC2)C1 (stereo not shown)	-0.02
Cc1ccc(C(C)(C)C)cc1S(=O)(=O)Nc1cccc(C(=O)NNC(=O)c2cccc(S(=O)(=O)Nc3cccc(C(F)(F)F)c3)c2)c1	1.22
O=c1oc2ccc3ccccc3c2cc1-c1nc(-c2ccc(Br)cc2)cs1	-0.08
O=C(Nc1cccc(-c2nc(C3CC3)no2)c1)c1cccc(NC(=O)C2CCCCC2)c1	0.42
Cc1cnc(C(=O)NC(Cc2ccccc2)C(=O)N2CCCC2)cn1 (stereo not shown)	-0.05

Structure (SMILES)	TSA(without NAD+) / Primary screening (TSA) / delta Tm (K)
Cc1nn(C)c(C)c1Nc1ncnc2ccsc12	-0.11
CCCCCCCCNC(=O)/C(C#N)=C/c1c[nH]c2ccccc12	0.58
O=C(O)c1cncnc1/C=C/c1ccc2ccccc2c1	-0.12
Cc1sc2nc(CSc3ccccc3)nc(N3CCCC(C(N)=O)C3)c2c1C (stereo not shown)	-0.12
CC(CCc1ccc(O)cc1)NC(=O)C(C)SCc1nc2scc(-c3ccccc3)c2c(=O)[nH]1 (stereo not shown)	-0.02
Cc1ccc(N(C)S(=O)(=O)c2cccc(C(=O)NNC(=O)C(C)Oc3ccc(C#N)cc3)c2)cc1 (stereo not shown)	-0.05
CCN(Cc1ccco1)C(=O)Cc1sc(S)nc1C	-0.08
CC1CCCN(CCN2CCN(c3ccc(F)cc3)CC2)C1 (stereo not shown)	0.08
Cc1nn(-c2ccccc2)c(Cl)c1CN1CCN(c2ncnc3c2cnn3C)CC1	-0.12
Fc1cc(CSc2nnc(NCC3CCCO3)s2)c2ncccc2c1 (stereo not shown)	-0.01
Cc1ccc(C(=O)NCC(=O)OC(C)C(=O)Nc2ccc(C(N)=O)cc2)cc1 (stereo not shown)	-0.07
Cc1cccc2c(=O)n(CC(=O)N(C)c3ccc4ccccc4c3)cnc12	-0.11
O=C(Nc1ccc2nc(N3CCOCC3)sc2c1)C1=COCCO1	-0.05
CNC(=O)c1ccc(Cl)cc1NC(=O)C1CC(=O)N(c2ccc3c(c2)OCO3)C1 (stereo not shown)	-0.11
Cn1cc(CSc2cccc(F)c2)cn1	-0.33
O=C(CCc1ccc(Cl)cc1)N1CCN(c2ccnc3cc(Cl)ccc23)CC1	0.08
Cc1cc(C(=O)Nc2cc(C(N)=O)ccc2N2CCCCC2)c2ccccc2n1	-0.02
CC(C)c1ccc(/C=C2/CS(=O)(=O)c3ccccc3C2=O)cc1[N+](=O)[O-]	-0.48
CCN(C(=O)c1cc(C)cc(Br)c1)c1ccncc1	-0.23
O=c1[nH]c2ccccc2cc1CSc1nccn1Cc1ccccn1	-0.17

Some of these compounds in order of length of the SMILES, ascending.
Structure (SMILES)	TSA(without NAD+) / Primary screening (TSA) / delta Tm (K)
CCC(O)CCN (stereo not shown)	-0.12
Cc1cc(C(=O)Nc2cc(C(N)=O)ccc2N2CCCCC2)c2ccccc2n1	-0.02
Cc1ccc(C(=O)NCC(=O)OC(C)C(=O)Nc2ccc(C(N)=O)cc2)cc1 (stereo not shown)	-0.07

(cont.)

Structure (SMILES)	TSA(without NAD+) / Primary screening (TSA) / delta Tm (K)
Cc1nn(CC(=O)N2CCC(N3CCCC3C(N)=O)CC2)cc1-c1ccccc1 (stereo not shown)	-0.22
C=C(Br)CN	-0.11
Cn1ccc(NC(=O)C(Cc2c[nH]c3ccccc23)NC(=O)c2cccs2)n1 (stereo not shown)	-0.13
CC(C)(C)c1noc(CCCC(=O)Nc2cc(C(N)=O)ccc2N2CCCC2)n1	-0.08
C=CC(C)N (stereo not shown)	-0.08
O=C(Nc1ccc2c3c(cccc13)CC2)c1cnc2sccn2c1=O	-0.17
NC(=O)c1ccc(NC(=O)CNc2cc(Cl)ccc2N2CCOCC2)cc1	-0.12
CC(C(=O)Nc1ccc(C(N)=O)cc1)N1CCN(c2ccc(O)cc2)CC1 (stereo not shown)	-0.02
CCOC(CNS(=O)(=O)c1ccc(C(N)=O)cc1)(OCC)c1ccccn1	-0.15
O=C(Cc1ccc(OCc2cccc3cccnc23)cc1)NCCO	-0.15
O=c1oc2ccc3ccccc3c2cc1-c1csc(-c2nc(-c3ccc(Br)cc3)cs2)n1	-0.12
Cc1cc2occ(CC(=O)N3CCN(S(=O)(=O)c4cc(C(N)=O)n(C)c4)CC3)c2cc1C(C)C	-0.13
NC(=O)c1cc(C2CCCN(c3nccc(-n4cccn4)n3)C2)n[nH]1 (stereo not shown)	-0.18
O=C(NCCCc1nc2ccccc2[nH]1)C(=O)Nc1cccnc1	-0.03
Cc1cc(CC(=O)NC(CC(C)C)C(=O)Nc2cc[nH]n2)no1 (stereo not shown)	-0.08
COc1cc(NC(=O)C2CCCC2)c(C(=O)OCC(=O)N(Cc2ccccc2)C(C)(C)C)cc1OC	-0.23
O=C(CCc1nc2ccccc2o1)N1CCN(C(c2ccccc2)c2ccccc2)CC1	0.02
CC(C(=O)Nc1ccc(C(N)=O)cc1)N(C)Cc1ccccc1N1CCCCC1 (stereo not shown)	-0.08
